From PubChem BioAssay AID202 (DTP/NCI, 2004)
The list is a part of this screen's results and no random one: it is rich in T/C values a quarter to a half above the control, in often repeated tests (any T/C) and in doses without a T/C. Further doses and runs are listed elsewhere. T/C is the treated group as % of the vehicle group. Some entries give survivors of the animals treated and no T/C: the source holds a T/C of zero for them, seemingly a mark for toxic or unscored doses. Counts of survivors are from the toxicity check (mostly the fifth day) where no day follows; animals may have died later. Schedule codes are those of the source, read here as Q, the interval in days (D) or hours (H), X, the number of doses. Some doses were run more than once; the results are listed from low to high.

Tested on: HT29 xenograft, nude mice, s.c., tumor weight T/C%
Assay: NCI In Vivo Anticancer Drug Screen. Data for tumor model HT29;CX-1 Human Adenocarcinoma (MER+) (subcutaneous) in NU/NU Swiss (nude) mice
Settings: T/C endpoint: optimum tumor weight change, schedule: Q04DX003 (ip), higher T/C = larger tumour
Protocol: The antitumor activity of compounds was measured in mice bearing transplantable tumors. Survival or tumor size were measured and the results are expressed as the measurement made in the treated group (T) divided by the measurement made in the vehicle treated control group (C). The tumor model used in this assay is HT29;CX-1 Human Adenocarcinoma (MER+) (subcutaneous) in NU/NU Swiss (nude) mice

With `CC(C)CCCCCCCCCCCCC(=O)NCC(=O)NC1C(C)OC(Nc2ncnc3nc[nH]c23)C(O)C1O` (centres undefined) the survivor count (dose: 3.13 mg/kg/injection, vehicle: distilled water + Tween-80) was 3 of 5 on day 37, the survivor count (dose: 12.5 mg/kg/injection, vehicle: distilled water + Tween-80) was 3 of 5 on day 37 and the survivor count (dose: 25.0 mg/kg/injection, vehicle: distilled water + Tween-80) was 0 of 5 on day 37. The survivor count (dose: 25.0 mg/kg/injection, vehicle: saline with Tween-80) was 0 of 5 on day 39.

For `Cc1c(N)nc([C@H](CC(N)=O)NC[C@H](N)C(N)=O)nc1C(=O)N[C@H](C(=O)N[C@H](C)[C@@H](O)CC(=O)N[C@H](C(=O)NC(O[C@@H]1O[C@@H](C)[C@@H](N)[C@@H](O)[C@H]1O)C(O)c1nc(-c2nc(C(=O)NCCCCN)cs2)cs1)[C@@H](C)O)[C@@H](O[C@@H]1O[C@@H](CO)[C@@H](O)[C@H](O)[C@@H]1O[C@H]1O[C@H](CO)[C@@H](O)[C@H](OC(N)=O)[C@@H]1O)c1c[nH]cn1` (some centres undefined), the survivor count (dose: 8.0 mg/kg/injection, vehicle: saline) was 2 of 5 on day 36, the survivor count (dose: 16.0 mg/kg/injection, vehicle: saline) was 3 of 6 on day 36 and the survivor count (dose: 32.0 mg/kg/injection, vehicle: saline) was 0 of 5 on day 36 and 2 of 5 on day 36.

In the case of `COc1cc([C@@H]2c3cc4c(c(O)c3C[C@H]3COC(=O)[C@@H]32)OCO4)cc(OC)c1O`, the survivor count (dose: 12.5 mg/kg/injection, vehicle: saline) was 2 of 5 on day 39 and the survivor count (dose: 25.0 mg/kg/injection, vehicle: saline) was 0 of 5 on day 39.
